Patent US20150148411A1, “COMPOSITIONS AND METHODS FOR DIAGNOSIS AND THERAPY OF DISORDERS RELATED TO ALTERATIONS OF MYH9” (THE ROCKEFELLER UNIVERSITY, priority 2013, published 2015)
Some results were stated once for a whole list of compounds, not compound by compound. Some compounds share one range, which may span the group rather than tell each member.

These substances were tested on squamous cell carcinoma formation (assay: Tumor-free survival of mice transduced in utero at E9.5 with shRNA lentivirus). Conditions: TβRII-cKO mice transduced at E9.5.
Format: in vivo, mouse

| Substance | median latency of skin SCCs and HNSCCs |
| --- | --- |
| Myh9-shRNA #504: shRNA targeting Myh9, 5′-CGGTAAATTCATTCGTATCAA-3′ (SEQ ID NO: 3) | 3-7 month |
| Myh9-shRNA #507: shRNA targeting Myh9, 5′-GCGATACTACTCAGGGCTTAT-3′ (SEQ ID NO: 6) | 3-7 month |
| Myh9-shRNA #503: shRNA targeting Myh9, 5′-GCCCTGGAACTGTGTTTAGAA-3′ (SEQ ID NO: 2) | 3-7 month |
